This is an account of results in article PMC7367482, “An Erg11 lanosterol 14-α-demethylase-Arv1 complex is required for Candida albicans virulence” (PLoS ONE, 2020).

These are yes or no findings as the source states them, for the method shown. In cells and extracts the contact can be indirect. Binding calls can cover weak binding; strength is not graded here. Tags and fused reporters may be left off the sequences shown.

The experiment concerns the target CaErg11^(Y132L F145L)-MYC (C. albicans) (UniProt P10613). Kind of experiment: co-IP; whole cell lysates of Scarv1 cells co-expressing Arv1-HA and Erg11-MYC; 1 mg protein, anti-HA (16B12) or anti-MYC (9E10) 4 hr at 4°C, Protein A agarose; washes with 10 mM HEPES pH 7.5, 200 mM NaCl, 5 mM EDTA, 0.1% Nonidet P-40; western.

B1: CaArv1-HA (protein, UniProt Q5ANH2 1-296)
chain: MICIECGYSNIDCLYSKYKSDYIKLSVCPECNKIADKYIEYDSVILFLDILLLKRQAYKHLAYNLTEMEMEIGSSTNFHINDNTNFKFFHTYRKLMKLIFMILSFEVYLTWANEEKLLIHSQLINLIFNQSVVYQYLFFIIKSSLENLILNLSLQLILRLGYKWGQGPQKINGNIRDKELFGYKTSVLLVTTMVSGSIRLFPILMFIWPYDNISITKPLINLIAFINIVEALRVVTSLGYVELILSLAFSIVIRNIVSKSLLVLIVRLFLDFNFTEVYYNEMYQLYSQIQTYIRWI
Regarding B1, the binding result is on record as “binds”.
